According to paper PMC3422339:
No constants are given. Whether binding was seen depends on the method and setting. For some of these results: Binding seen in cells or lysates may run through a third protein. Some entries that bind do so weakly or less than the wild type. For some of these results: Where a sequence is shown, tags or fusion partners need not be part of it.

By UniProt entry, the sequences of proteins in these tests, tags left out.
UniProt Q9LVJ7: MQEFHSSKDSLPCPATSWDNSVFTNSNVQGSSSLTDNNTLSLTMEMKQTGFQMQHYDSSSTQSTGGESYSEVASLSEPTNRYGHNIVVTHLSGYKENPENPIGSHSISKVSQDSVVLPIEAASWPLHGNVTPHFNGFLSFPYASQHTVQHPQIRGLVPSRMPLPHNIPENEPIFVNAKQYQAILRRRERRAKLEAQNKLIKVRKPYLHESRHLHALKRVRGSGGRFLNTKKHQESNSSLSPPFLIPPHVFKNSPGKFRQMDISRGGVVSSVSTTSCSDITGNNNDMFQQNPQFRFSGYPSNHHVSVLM

Columns and labels:
[1] = molecular target: T1, mouse NF-YB/NF-YC (recombinant HFD dimer of Figure 4C) (mouse) (UniProt P63139+P70353); assay: native gel or EMSA; Figure 4: TnT produced Arabidopsis subunit added to two recombinant mouse subunits; 32P-labelled CCAAT oligonucleotide; NF-Y buffer (20 mM Hepes pH 7.9, 50 mM NaCl, 5% glycerol, 5 mM MgCl2), 15 min 20°C; 4.5% polyacrylamide, 0.5x TBE; the read-out is the trimer bound to DNA; only the target …
T1 sequence 1: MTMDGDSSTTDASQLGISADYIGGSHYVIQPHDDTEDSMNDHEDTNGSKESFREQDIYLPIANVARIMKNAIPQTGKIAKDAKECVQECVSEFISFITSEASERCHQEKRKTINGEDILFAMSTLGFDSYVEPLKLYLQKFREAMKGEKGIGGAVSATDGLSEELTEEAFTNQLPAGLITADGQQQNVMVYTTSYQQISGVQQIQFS
T1 sequence 2: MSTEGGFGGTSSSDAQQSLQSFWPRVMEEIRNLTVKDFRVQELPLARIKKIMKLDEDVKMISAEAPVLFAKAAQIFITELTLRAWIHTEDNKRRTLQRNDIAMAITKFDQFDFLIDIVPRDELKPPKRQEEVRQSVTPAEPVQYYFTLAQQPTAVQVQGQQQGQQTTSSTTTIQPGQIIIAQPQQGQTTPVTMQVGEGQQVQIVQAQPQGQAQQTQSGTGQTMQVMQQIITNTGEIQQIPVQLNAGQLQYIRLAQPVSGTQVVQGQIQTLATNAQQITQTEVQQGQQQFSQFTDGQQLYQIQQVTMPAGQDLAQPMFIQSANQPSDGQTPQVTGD

[2] = molecular target: T2, AtNF-YB6/AtNF-YC3 dimer (recombinant, renatured together) (Arabidopsis thaliana) (UniProt Q84W66+Q9ZVL3); assay: native gel or EMSA; Figure 5B: recombinant AtNF-YB6/AtNF-YC3 dimer with other AtNF-YA family members (made in this paper only by TnT, AtNF-YA6 aside); labelled CCAAT oligonucleotide; the read-out is the trimer bound to DNA; only the target purified
T2 sequence 1: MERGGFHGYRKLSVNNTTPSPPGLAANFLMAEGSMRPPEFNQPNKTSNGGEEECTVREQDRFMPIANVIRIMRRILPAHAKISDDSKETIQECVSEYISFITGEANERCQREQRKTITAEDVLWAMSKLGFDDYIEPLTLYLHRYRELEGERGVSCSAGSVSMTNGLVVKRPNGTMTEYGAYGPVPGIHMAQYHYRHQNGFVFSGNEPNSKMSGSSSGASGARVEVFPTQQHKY
T2 sequence 2: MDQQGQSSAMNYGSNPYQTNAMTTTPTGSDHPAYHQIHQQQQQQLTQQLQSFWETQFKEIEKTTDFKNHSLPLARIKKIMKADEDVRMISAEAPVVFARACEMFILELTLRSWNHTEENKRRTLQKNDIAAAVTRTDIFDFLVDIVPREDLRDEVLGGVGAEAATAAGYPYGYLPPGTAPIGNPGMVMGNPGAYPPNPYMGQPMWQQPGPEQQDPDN

[3] = molecular target: T3, His-tagged recombinant AtNF-YB2 (Arabidopsis thaliana) (UniProt Q9FGJ3); assay: pull-down; as a4, with labelled TnT produced AtNF-YA6 added to the load together with an AtNF-YC (Figure 3B); His-tagged AtNF-YB2 held on Nickel-agarose; only the target purified
T3 sequence: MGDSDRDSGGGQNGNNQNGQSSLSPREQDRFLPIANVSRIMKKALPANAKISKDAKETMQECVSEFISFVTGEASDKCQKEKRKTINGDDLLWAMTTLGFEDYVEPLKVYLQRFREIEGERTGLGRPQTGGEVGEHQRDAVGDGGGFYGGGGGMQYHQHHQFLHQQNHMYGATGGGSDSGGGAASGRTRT

[4] = molecular target: T2, AtNF-YB6/AtNF-YC3 dimer (recombinant, renatured together) (Arabidopsis thaliana); assay: native gel or EMSA; Figure 5A: recombinant AtNF-YB/AtNF-YC dimers with recombinant AtNF-YA6 or recombinant mouse NF-YA; 32P-labelled CCAAT oligonucleotide; NF-Y buffer, 15 min 20°C; 4.5% polyacrylamide; the read-out is the trimer bound to DNA; both purified

binding [4] | Substance | binding [1] | binding [2] | binding [3]
– | AtNF-YA6 (TnT produced) (from UniProt Q9LVJ7 1-308) | binds | binds | binds
binds | recombinant AtNF-YA6 (His-tagged) (from UniProt Q9LVJ7 1-308) | – | – | –
